These results are taken from doi:10.1101/2021.12.24.474151.

The chains behind the UniProt entries cited, without tags or fusion partners.
UniProt P35637: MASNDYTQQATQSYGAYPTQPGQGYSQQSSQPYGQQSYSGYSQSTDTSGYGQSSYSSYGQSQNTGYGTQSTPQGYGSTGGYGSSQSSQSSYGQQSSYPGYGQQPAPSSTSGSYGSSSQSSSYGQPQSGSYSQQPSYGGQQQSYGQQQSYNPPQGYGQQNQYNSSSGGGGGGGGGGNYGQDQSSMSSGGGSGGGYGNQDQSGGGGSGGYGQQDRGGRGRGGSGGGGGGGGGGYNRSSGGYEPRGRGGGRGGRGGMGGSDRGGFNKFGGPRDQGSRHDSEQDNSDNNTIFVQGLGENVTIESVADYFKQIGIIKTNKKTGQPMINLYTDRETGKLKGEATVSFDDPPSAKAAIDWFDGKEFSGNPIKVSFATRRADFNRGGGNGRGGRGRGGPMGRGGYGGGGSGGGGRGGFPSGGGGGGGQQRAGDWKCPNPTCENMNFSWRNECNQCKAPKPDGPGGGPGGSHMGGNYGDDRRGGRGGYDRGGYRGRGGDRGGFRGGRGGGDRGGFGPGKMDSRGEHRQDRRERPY

These are yes or no findings as the source states them, for the method shown. Binding seen in cells or lysates may run through a third protein. Some entries that bind do so weakly or less than the wild type.

For this test, the target named is Halo-FLAG-FUS (wild type) complexed with the photoreactive ligand PL (UniProt P35637). Description: cross-linking.

Regarding “Valosin-containing protein (VCP), endogenous in the cells of the photo-cross-linking experiment (from UniProt P55072 1-806)”, the binding entry is on record as “binds”.
